# Earlier results as cited in patent US11028075B2, “Therapeutic compounds and methods of use thereof” (GENENTECH, INC., priority 2018, dated 2021).
# Details: administered topically (Lidoderm patch); cited from earlier work
smiles,measurement,value
CCN(CC)CC(=O)Nc1c(C)cccc1C [lidocaine],plasma concentrations,about 1 μM
